These results are taken from publication PMC8448735.

No constants are given. Whether binding was seen depends on the method and setting. In cells and extracts the contact can be indirect. Some entries that bind do so weakly or less than the wild type. Sequences can lack the tags named with a protein.

This test deals with T1, HA-mTPP1 (mouse) (UniProt Q5EE38).
T1 sequence: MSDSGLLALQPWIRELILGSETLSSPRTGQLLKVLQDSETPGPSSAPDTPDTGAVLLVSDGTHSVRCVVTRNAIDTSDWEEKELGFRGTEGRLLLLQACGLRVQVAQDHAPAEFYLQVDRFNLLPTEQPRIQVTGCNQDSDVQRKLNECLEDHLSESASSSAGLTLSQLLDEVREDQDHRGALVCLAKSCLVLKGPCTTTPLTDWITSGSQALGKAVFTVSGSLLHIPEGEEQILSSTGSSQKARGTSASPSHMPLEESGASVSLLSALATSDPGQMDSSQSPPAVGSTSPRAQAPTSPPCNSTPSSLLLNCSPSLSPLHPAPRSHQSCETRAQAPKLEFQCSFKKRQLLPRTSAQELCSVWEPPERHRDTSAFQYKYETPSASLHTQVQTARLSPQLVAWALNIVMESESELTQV
Kind of test: co-IP; 293T cells co-transfected with WT or mutant Myc-POT1a or Flag-POT1b and HA-mTPP1; lysates in TEB150 buffer (50 mM Hepes pH7.3, 150 mM NaCl, 2 mM MgCl2, 5 mM EGTA, 0.5% Triton-X-100, 10% Glycerol, proteinase inhibitors) for 6 h at 4 °C with anti-Tag antibody cross-linked agarose beads; eluate analysed by immunoblotting.

B1: Myc-POT1a^WT (protein, UniProt Q91WC1 1-640)
chain: MSLVSTAPYTYTPLNLLKEGTIANVYGVVKFFKPPYVSKGTDYCSVVTIVDQTNVKLTCMLFSGNYEALPIIYKVGDIVRFHRLKIQVYKNELQGINCSGFASLTFEGTVGMPVTARTSSKVFSFTPQDQKMVEALRVWASKHISASSTLVQLCDAQPMQYYDLTCQLLGKAQVDSTAFLLKVWDGTQTVLPSWRVSTQDLTFEGDLSHIERLQSLVVDILVYDNHVQVARSIEVGCFLRLYSLHTKLQPGNSETSSSESLRLEFHLHGGTSYGRGIRVLPDTSPCVDQLKKALEGANLPVTETSTGICQSENGDSSALSNSGSGAVSPYEEERCQQVSATILTNHQHLEKTPLCAILTQKAPQQYRVRAKLRSYLPRRLSQSVKLLCPKCHSVQEVPHGDSLDKILQDAATEAPDIKLKATSLYYSKVWTTEDQGGRQVAVHFVKNNGILPASSECLILIEGGRLCEVSKLSSKFHSVMPVRSGPESLELLTLSAPFLIQGKVHHYGCKQCSSLKPIQNLNSRFHKGPWTPSSVAEALGVVPLQYVFVMVFTLDDGTGVLEAYLKDSEHFFKIPASEVLTDDDLQRSLETIMDMICPPGIKVDAYPWLECLLKSYNVTIGTERRICYQIFDTTVAENVV
For B1, the binding entry was “binds”.

B2: Myc-POT1a^DDE (protein, UniProt Q91WC1 1-640)
chain: MSLVSTAPYTYTPLNLLKEGTIANVYGVVKFFKPPYVSKGTDYCSVVTIVDQTNVKLTCMLFSGNYEALPIIYKVGDIVRFHRLKIQVYKNELQGINCSGFASLTFEGTVGMPVTARTSSKVFSFTPQDQKMVEALRVWASKHISASSTLVQLCDAQPMQYYDLTCQLLGKAQVDSTAFLLKVWDGTQTVLPSWRVSTQDLTFEGDLSHIERLQSLVVDILVYDNHVQVARSIEVGCFLRLYSLHTKLQPGNSETSSSESLRLEFHLHGGTSYGRGIRVLPDTSPCVDQLKKALEGANLPVTETSTGICQSENGDSSALSNSGSGAVSPYEEERCQQVSATILTNHQHLEKTPLCAILTQKAPQQYRVRAKLRSYLPRRLSQSVKLLCPKCHSVQEVPHGDSLDKILQDAATEAPDIKLKDTSLYDSEVWTTEDQGGRQVAVHFVKNNGILPASSECLILIEGGRLCEVSKLSSKFHSVMPVRSGPESLELLTLSAPFLIQGKVHHYGCKQCSSLKPIQNLNSRFHKGPWTPSSVAEALGVVPLQYVFVMVFTLDDGTGVLEAYLKDSEHFFKIPASEVLTDDDLQRSLETIMDMICPPGIKVDAYPWLECLLKSYNVTIGTERRICYQIFDTTVAENVV
Regarding B2, the binding entry was “binds”.
